This series is described as follows: Acute seven-day toxicity (LD50), single oral application. Further details: species or system mice (white NMRI). The settings on record: mouse, in vivo, p.o., mice. As to the method: The acute seven-day toxicity is determined by a single application per os and intraperitoneally to white fasting NMRI mice. The computation of the LD50 values was effected via EDV by a probit analysis (Cavalli-Sforza, publisher Gustav Fischer, 1964, Grundbegriffe der Biometrie).

The structures appear in SMILES notation.

LD50 data for one compound are collected here from US4244869A, “Benzodiazepine derivatives and process of making them” (Kali-Chemie A.G., priority 1972, dated 1981).

As to `CN1C(=O)CN=C(c2ccccc2)c2cc(Cl)ccc21` [Standard II, 7-chloro-1-methyl-5-phenyl-1,3-dihydro-2H-1,4-benzodiazepin-2-one, reference compound], the LD50 (in general, the dose expected to kill half of the subjects tested) at 168 h is 887 mg/kg.
